Results are given in words; binding and its absence hold for the method and conditions named. Some results given as binding are weak or reduced against the parent protein; the word gives no strength.
Biological target: Homo sapiens Beta-Nerve Growth Factor (beta-NGF) (Homo sapiens) (UniProt P01138)
Test: ELISA, biotinylated NGF on neutravidin plates, anti-human Fc-HRP

The chains behind the UniProt entries cited, without tags or fusion partners. Where a name states a change or a piece, a line headed by the entry shows the natural chain unless it says otherwise.
UniProt P01138: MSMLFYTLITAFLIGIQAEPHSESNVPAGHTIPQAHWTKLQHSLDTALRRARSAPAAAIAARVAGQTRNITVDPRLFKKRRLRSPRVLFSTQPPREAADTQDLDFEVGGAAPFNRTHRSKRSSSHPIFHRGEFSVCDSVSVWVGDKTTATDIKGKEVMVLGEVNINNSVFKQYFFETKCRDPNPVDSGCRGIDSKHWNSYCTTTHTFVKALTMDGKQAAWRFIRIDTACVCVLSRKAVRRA

B1: Antibody Ab20 (antibody, human IgG1, kappa, N297A, V domains shown)
VH: EVQLVESGGGLVQPGGSLRLSCAASGFTVSTYWMSWVRQAPGKGLEWVGDIYFSNEETNYATSAKGRFTISRDNSKNTLYLQMNSLRAEDTAVYYCARGSPDVEIAIDMWGQGTLVTVSS
VL: DIQMTQSPSSLSASVGDRVTITCQSSQNVYKNNYLSWYQQKPGKVPKLLIYKASTLASGVPSRFSGSGSGTDFTLTISSLQPEDVATYYCAGGYTSSSDNAFGGGTKVEIKR
**Q.** B1 was tested. Which binding did it give?
**A.** binds
